Values from PubChem BioAssay AID652259 (Drosophila RNAi Screening Center, 2013).
Assay: 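Identify new Wingless signalling regulators in fly cells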 (primary screen). System: Drosophila clone 8 imaginal disc epithelial cells. Knock-down reagent: long dsRNA against Drosophila genes. Challenge: pathway stimulated by co-transfected Wingless expression plasmid. Measurement: 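Firefly luciferase from a tcf-site Wingless reporter, measured alongside co-transfected Renilla luciferase that tracks transfection; pathway stimulated by a Wingless plasmid; the firefly-to-Renilla ratio is not deposited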. Direction: firefly reporter light: higher = more Wg reporter light, before normalisation; Renilla control light: higher = more transfected or surviving cells. Call rule: 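Strong candidates differ from their plate mean by at least two out of four per-plate statistical tests; weak candidates meet just one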. Calls: active = candidate regulator (raises or lowers reporter); inactive = not a candidate.
The deposit covers about 22,000 reagents; this is a random part of those that have a named target and a result. Of all reagents, 233 (1.1%) are marked active. 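Light values are raw, unnormalised plate reads; the ratio scores behind the reporter calls were not deposited.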 A number with no mark means an inactive call. No sequences are given here. The record does not give: the amount of reagent, the time to read-out, the dose of the treatment.

Depletion of CG7196 (retired record) [DRSC01000] came out at: firefly reporter light, replicate 1 = 17388; Renilla control light, replicate 1 = 8248. CG7196 (retired record) [DRSC03023] showed firefly reporter light, replicate 1 = 3002; firefly reporter light, replicate 2 = 3754; Renilla control light, replicate 1 = 1028; Renilla control light, replicate 2 = 2053. Against TwdlE (TweedleE) [DRSC02392] the deposit lists firefly reporter light, replicate 1 = 3840; firefly reporter light, replicate 2 = 5033; Renilla control light, replicate 1 = 968; Renilla control light, replicate 2 = 3013. lncRNA:CR42646 (long non-coding RNA:CR42646) [DRSC04759] showed firefly reporter light, replicate 1 = 24262; Renilla control light, replicate 1 = 11603. For CG32485 [DRSC22666], the values are firefly reporter light, replicate 1 = 5.53e5; firefly reporter light, replicate 2 = 5.60e5; Renilla control light, replicate 1 = 2.26e5; Renilla control light, replicate 2 = 1.84e5. CG12105 [DRSC08255] scored firefly reporter light, replicate 1 = 12004; Renilla control light, replicate 1 = 3316.

After knock-down of CG12689 [DRSC17879], the record shows firefly reporter light, replicate 1 = 12709; Renilla control light, replicate 1 = 7157. CG3630 [DRSC18499] gave firefly reporter light, replicate 1 = 3280; firefly reporter light, replicate 2 = 4900; Renilla control light, replicate 1 = 1419; Renilla control light, replicate 2 = 2188. Srp72 (Signal recognition particle 72) [DRSC15800] showed firefly reporter light, replicate 1 = 4066; firefly reporter light, replicate 2 = 6994; Renilla control light, replicate 1 = 1561; Renilla control light, replicate 2 = 1653. goe (gone early) [DRSC19345] showed firefly reporter light, replicate 1 = 17369; Renilla control light, replicate 1 = 7610. Against CG31638 [DRSC02269] the deposit lists firefly reporter light, replicate 1 = 2877; firefly reporter light, replicate 2 = 5521; Renilla control light, replicate 1 = 848; Renilla control light, replicate 2 = 928. After knock-down of CG31638 [DRSC03259], the record shows firefly reporter light, replicate 1 = 3045; firefly reporter light, replicate 2 = 2657; Renilla control light, replicate 1 = 1012; Renilla control light, replicate 2 = 669.

In a second layout: entries from further up.
target,dsRNA,"firefly reporter light, replicate 1","firefly reporter light, replicate 2","Renilla control light, replicate 1","Renilla control light, replicate 2"
CG12105,DRSC08255,12004,,3316,
CG12689,DRSC17879,12709,,7157,

Continued:
Against Ir64a (Ionotropic receptor 64a) [DRSC09759], the values are firefly reporter light, replicate 1 = 1563; firefly reporter light, replicate 2 = 8839; Renilla control light, replicate 1 = 1025; Renilla control light, replicate 2 = 1899. Knock-down of Ir64a (Ionotropic receptor 64a) [DRSC09760] resulted in: firefly reporter light, replicate 1 = 1272; firefly reporter light, replicate 2 = 6325; Renilla control light, replicate 1 = 1188; Renilla control light, replicate 2 = 3098. CG8924 [DRSC20122] showed firefly reporter light, replicate 1 = 3586; firefly reporter light, replicate 2 = 7099; Renilla control light, replicate 1 = 746; Renilla control light, replicate 2 = 1025. Against Duox (Dual oxidase) [DRSC00571] the deposit lists firefly reporter light, replicate 1 = 4308; firefly reporter light, replicate 2 = 11036; Renilla control light, replicate 1 = 1088; Renilla control light, replicate 2 = 3051. Knock-down of alrm (astrocytic leucine-rich repeat molecule) [DRSC14436] resulted in: firefly reporter light, replicate 1 = 12662; Renilla control light, replicate 1 = 13056. CG42565 [DRSC04154] scored firefly reporter light, replicate 1 = 2600; firefly reporter light, replicate 2 = 4213; Renilla control light, replicate 1 = 851; Renilla control light, replicate 2 = 1905.

After knock-down of CG13634 [DRSC14635], the screen gave firefly reporter light, replicate 1 = 21947; Renilla control light, replicate 1 = 13664. With knock-down of SmD1 (Small ribonucleoprotein particle protein SmD1) [DRSC09800], the screen gave firefly reporter light, replicate 1 = 6522; Renilla control light, replicate 1 = 2577. Silencing of Takl1 (Tak1-like 1) [DRSC13443] resulted in: firefly reporter light, replicate 1 = 3392; Renilla control light, replicate 1 = 1883. Depletion of rictor (rapamycin-insensitive companion of Tor) [DRSC20071] gave: firefly reporter light, replicate 1 = 18288; Renilla control light, replicate 1 = 8699. With knock-down of PAPLA1 (Phosphatidic Acid Phospholipase A1) [DRSC03095], the screen gave firefly reporter light, replicate 1 = 11053; Renilla control light, replicate 1 = 4172. PAPLA1 (Phosphatidic Acid Phospholipase A1) [DRSC03096] scored firefly reporter light, replicate 1 = 1937; firefly reporter light, replicate 2 = 5633; Renilla control light, replicate 1 = 837; Renilla control light, replicate 2 = 2292.

For CG10512 [DRSC11615], the entry reads firefly reporter light, replicate 1 = 14939; Renilla control light, replicate 1 = 4615.
